According to PubChem BioAssay AID493014 (National Center for Advancing Translational Sciences (NCATS), 2011):
The list shows a part of the results. Further columns of the screen follow, without active or inactive calls. Most of these compounds were active or inconclusive in the main read-out, so they are no random draw. Words in brackets tell the shape of the fitted curve; partial curves, single points and poor fits give uncertain potencies.

Assay: qHTS Assay to Find Inhibitors of Chronic Active B-Cell Receptor Signaling
Conditions: ABC-DLBCL IkBa-CBG/CBR reporter, luminescence ratio (green luciferase fused to IkBa over red control in TMD8 lymphoma cells), 4 h
Outline: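 Concentration-response series (up to 46 uM) were applied to TMD8 dual-reporter cells for 4 h at 37C with doxycycline. Green/red ratio, after filter-overlap correction, defined %Activity; red signal alone was normalised to basal cells and zero luminescence.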

[1] = measured here: CBR red luminescence, cell number
[2] = measured here: IkBa-CBG green luminescence

Row | SMILES | AC50 [1] | AC50 [2]
1 | Cc1cccn2c(=O)nc(SCC(=O)NCCc3ccccc3)nc12 | 6.51 µM [rising, partial curve, poor fit] | –
2 | O=c1[nH]c(CSc2nnc(COc3ccccc3)n2-c2ccccc2)nc2ccccc12 | 16.4 µM [falling, single point] | –
3 | COc1ccc(CC(=O)Nc2sc(Cc3ccccc3)c(C)c2C(N)=O)cc1 | 12.6 µM [rising, single point] | –
4 | O=C(Nc1nc2c(Cl)ccc(Cl)c2s1)c1ccco1 | 0.517 µM [falling, full curve, poor fit] | –
5 | COc1ccc(N/C=C(/C(C)=O)c2ccccc2)cc1 | 11.6 µM [rising, partial curve] | –
6 | O=C(N/N=C/c1ccccc1[N+](=O)[O-])c1ccc(COc2ccccc2-c2ccccc2)cc1 | 4.61 µM [rising, partial curve, poor fit] | –
7 | Clc1cccc(-n2ncc3c(N4CCN(Cc5ccccc5)CC4)ncnc32)c1 | 35.5 µM [falling, single point] | –
8 | O=C(CSc1nc2ccccc2c(=O)[nH]1)c1ccccc1 | 18.4 µM [falling, partial curve, poor fit] | –
9 | Cc1ccnc(SCC(=O)c2ccc(Br)s2)n1 | 35.5 µM [rising, single point] | –
10 | CCCC(=O)c1ccc(N2CCCC2)c(F)c1 | 18.4 µM [rising, single point] | –
11 | COc1cccc(-c2nnc(NC(=O)c3cccc(F)c3)o2)c1 | 1.78 µM [falling, full curve] | –
12 | Cc1ccc(NC(=O)Nc2cc(S(C)(=O)=O)ccc2Cl)cc1 | 2.51 µM [rising, partial curve] | –
13 | C[C@H](CO)N1C[C@H](C)[C@@H](CN(C)S(=O)(=O)c2ccccc2)Oc2ccc(NC(=O)CCC(F)(F)F)cc2C1=O | 20.6 µM [rising, single point] | –
14 | Cc1cccnc1NC(=O)c1cc2ccccc2oc1=O | 2.24 µM [falling, partial curve, poor fit] | –
15 | Cc1[nH]c2ccccc2c1CCNC(=O)c1ccc2c(c1[N+](=O)[O-])C(=O)c1ccccc1C2=O | 14.1 µM [falling, single point] | –
16 | COC(=O)C1=C(COc2ccccc2)NC(=O)NC1c1ccc(Br)cc1 (stereo not drawn) | 29.1 µM [falling, single point] | –
17 | Cc1cc(N(CC(=O)O)S(C)(=O)=O)ccc1Br | 6.51 µM [rising, single point] | –
18 | CC(=O)OCC(=O)N1N=C(c2ccc3ccccc3c2)CC1c1ccccc1 (stereo not drawn) | 12.6 µM [falling, partial curve, poor fit] | –
19 | CCOc1ccc(C)cc1S(=O)(=O)n1ccnc1 | 0.366 µM [rising, full curve, poor fit] | –
20 | O=C(NCc1ccc(F)cc1)C1CCCN(C(=O)NCc2ccccc2)C1 (stereo not drawn) | 12.6 µM [rising, partial curve, poor fit] | –
21 | CCn1c(Cc2ccc(OC)cc2)nnc1SCC(=O)Nc1cccc(C(=O)OC)c1 | 2.31 µM [falling, partial curve, poor fit] | –

Structures above that contain an aryl thioether with sulfur outside any ring, in the order listed:
Row | SMILES | AC50 [1] | AC50 [2]
1 | Cc1cccn2c(=O)nc(SCC(=O)NCCc3ccccc3)nc12 | 6.51 µM [rising, partial curve, poor fit] | –
2 | O=c1[nH]c(CSc2nnc(COc3ccccc3)n2-c2ccccc2)nc2ccccc12 | 16.4 µM [falling, single point] | –
8 | O=C(CSc1nc2ccccc2c(=O)[nH]1)c1ccccc1 | 18.4 µM [falling, partial curve, poor fit] | –
9 | Cc1ccnc(SCC(=O)c2ccc(Br)s2)n1 | 35.5 µM [rising, single point] | –
21 | CCn1c(Cc2ccc(OC)cc2)nnc1SCC(=O)Nc1cccc(C(=O)OC)c1 | 2.31 µM [falling, partial curve, poor fit] | –

The listing continues:

Row | SMILES | AC50 [1] | AC50 [2]
22 | COc1ccc(C(=O)Nc2ncc3c(n2)-c2ccccc2CC3)cc1 | 3.98 µM [falling, partial curve, poor fit] | –
23 | Cc1ccc(S(=O)(=O)N2CCCN(C)CC2)cc1 | 5.01 µM [rising, single point] | –
24 | CC(C)OC1(c2ccccc2)OC(=O)c2ccccc21 (stereo not drawn) | 7.94 µM [rising, partial curve, poor fit] | –
25 | Cc1ccc(S(=O)(=O)NCCC(=O)NCCCSc2ccccc2)cc1 | – | 20.6 µM [falling, partial curve, poor fit]
26 | CSc1nsc(SCC(=O)Nc2nc3ccccc3s2)n1 | 18.4 µM [falling, single point] | 18.4 µM [rising, partial curve, poor fit]
27 | Cc1c(Cl)cccc1N1CC(C(=O)Nc2nccs2)CC1=O (stereo not drawn) | 29.1 µM [falling, single point] | –
28 | S=C(NCc1cccs1)Nc1cccc(Cl)c1Cl | 3.26 µM [rising, single point] | –
29 | O=C1CN(C(=O)OCc2ccccc2)c2ccccc2N1 | 7.08 µM [falling, partial curve] | –
30 | CC1CCN(c2c([N+](=O)[O-])c(=O)oc3ccccc23)CC1 | 23.1 µM [falling, single point] | –
31 | CN(C)/N=C/c1ccc(/C=N/NC(N)=S)o1 | 14.1 µM [rising, partial curve, poor fit] | –
32 | O=C(Nc1cccc(NC(=O)c2ccco2)c1)c1ccc2c(c1)OCO2 | 2.82 µM [falling, full curve] | –
33 | O=C(O)c1cc(N/N=C2/CC(c3ccccc3)Oc3ccccc32)ccc1Cl (stereo not drawn) | 23.1 µM [falling, single point] | –
34 | CCc1c(C(=O)N/N=C/c2sccc2C)nnn1-c1nonc1N | 3.55 µM [falling, full curve, poor fit] | –
35 | CC(NC(=O)CNC(=O)c1ccco1)c1ccc(S(N)(=O)=O)cc1 (stereo not drawn) | 35.5 µM [falling, single point] | –
36 | C=CCOc1ccc(C2C(C(=O)c3ccco3)=C(O)C(=O)N2c2nnc(C)s2)cc1 (stereo not drawn) | 35.5 µM [rising, single point] | –
37 | Cc1[nH]c2ccc(C(=O)N3CCN(c4cccc(Cl)c4)CC3)cc2c1C | 4.47 µM [rising, partial curve, poor fit] | 11.2 µM [falling, partial curve, poor fit]
38 | Cn1ncc2c(Nc3ccc(Br)cc3)nc(Nc3ccc(Br)cc3)nc21 | 12.6 µM [falling, partial curve, poor fit] | –
39 | CC[N+](C)(CC)CCC[n+]1c(-c2ccccc2)c2cc(N)ccc2c2ccc(N)cc21 | 29.1 µM [falling, single point] | –
40 | O=C(COc1ccc(Cl)cc1Cl)NC(=S)Nc1ccc(CN2CCOCC2)cc1 | 35.5 µM [rising, single point] | –
41 | Nn1c(-c2ccccc2Cl)nnc1-c1ccccc1Cl | 10.3 µM [falling, partial curve, poor fit] | –
